Results from patent US6107489A (ConjuChem, Inc., priority 1999, dated 2000).
Strings that start with PEPTIDE1 are HELM notation: dots part the residues, brackets hold end groups and non-standard residues.

Assay: general procedure: solution-phase peptide synthesis; DCC/HOBT
Conditions: for step yield: late stage modification step

PEPTIDE1{[Boc].F.H.[ACHPA].I.[Ahx]}$$$$V2.0
step yield: 99%

Boc-Phe-His-ACHPA-IIe-6-AC-OMe
step yield: 85%

N-Biotin-Phe-His-ACHPA-IIe-6-AC-sulfo-NHS
step yield: 68%

Boc-Phe-His-ACHPA-IIe-6-AC-NHS
step yield: 12%

N-Biotin-Phe-His-ACHPA-IIe-6-AC-OH
conjugation yield (conjugation step): 41%

Boc-Phe-His-ACHPA-IIe-6-AC-sulfo-NHS
step yield: 60%
